Where a chain is given by its changes, count along the chain named. These are yes or no findings as the source states them, for the method shown. Binding seen in cells or lysates may run through a third protein. Some binding calls cover weakened binding; strength is not graded here. Where a sequence is shown, tags or fusion partners need not be part of it.
Key:
[1] = molecular target: T1, WT NPAS4-mycFlag (human Neuronal PAS factor 4) (human) (UniProt Q8IUM7); assay: co-IP; HEK293T cells transfected with NPAS4-mycFlag only; Flag M2 resin; endogenous ARNT2 detected by anti-ARNT2 immunoblot; band intensity quantified in 3 independent experiments
T1 sequence: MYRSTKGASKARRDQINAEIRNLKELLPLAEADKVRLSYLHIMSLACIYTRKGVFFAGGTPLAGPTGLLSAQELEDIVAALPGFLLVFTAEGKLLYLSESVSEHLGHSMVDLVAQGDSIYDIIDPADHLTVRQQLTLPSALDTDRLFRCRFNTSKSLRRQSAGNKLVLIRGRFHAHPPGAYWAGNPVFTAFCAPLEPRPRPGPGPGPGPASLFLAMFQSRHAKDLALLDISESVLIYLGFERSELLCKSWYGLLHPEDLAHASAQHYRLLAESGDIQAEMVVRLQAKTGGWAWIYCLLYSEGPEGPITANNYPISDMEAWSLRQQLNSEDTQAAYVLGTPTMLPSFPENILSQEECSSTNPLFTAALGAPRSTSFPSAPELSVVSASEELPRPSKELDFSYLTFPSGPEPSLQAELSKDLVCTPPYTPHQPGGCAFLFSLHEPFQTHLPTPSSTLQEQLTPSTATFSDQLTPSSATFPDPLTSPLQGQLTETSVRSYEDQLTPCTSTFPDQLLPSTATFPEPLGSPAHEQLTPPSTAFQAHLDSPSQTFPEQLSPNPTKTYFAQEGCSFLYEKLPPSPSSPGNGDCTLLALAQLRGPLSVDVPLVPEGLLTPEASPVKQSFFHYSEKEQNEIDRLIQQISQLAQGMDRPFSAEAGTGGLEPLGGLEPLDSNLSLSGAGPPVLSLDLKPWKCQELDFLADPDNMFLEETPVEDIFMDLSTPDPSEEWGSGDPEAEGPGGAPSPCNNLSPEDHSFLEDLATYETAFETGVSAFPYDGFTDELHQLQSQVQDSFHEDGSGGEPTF

Sequences of proteins named here, by UniProt entry; tags and fusion partners are left off. A change or cut given only in a name is not applied to a line headed by its entry.
UniProt Q9HBZ2: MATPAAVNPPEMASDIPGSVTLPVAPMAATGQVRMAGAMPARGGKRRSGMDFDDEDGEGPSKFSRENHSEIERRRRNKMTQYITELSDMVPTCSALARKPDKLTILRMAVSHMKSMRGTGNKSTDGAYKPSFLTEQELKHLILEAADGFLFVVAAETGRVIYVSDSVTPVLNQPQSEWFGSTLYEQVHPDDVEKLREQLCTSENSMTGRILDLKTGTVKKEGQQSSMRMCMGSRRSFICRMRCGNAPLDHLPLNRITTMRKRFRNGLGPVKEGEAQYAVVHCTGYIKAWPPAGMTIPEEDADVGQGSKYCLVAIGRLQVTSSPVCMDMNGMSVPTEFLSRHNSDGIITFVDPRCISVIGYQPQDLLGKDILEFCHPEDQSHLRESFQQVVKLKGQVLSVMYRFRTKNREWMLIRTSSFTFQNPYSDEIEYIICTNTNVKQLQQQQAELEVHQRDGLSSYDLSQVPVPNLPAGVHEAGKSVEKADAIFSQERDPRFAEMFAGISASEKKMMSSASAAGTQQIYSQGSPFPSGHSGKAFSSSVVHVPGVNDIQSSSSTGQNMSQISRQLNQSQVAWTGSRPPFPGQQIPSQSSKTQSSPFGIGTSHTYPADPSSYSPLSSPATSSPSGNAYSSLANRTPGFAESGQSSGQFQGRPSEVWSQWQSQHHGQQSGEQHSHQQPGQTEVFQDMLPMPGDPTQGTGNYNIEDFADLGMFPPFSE

[2] = molecular target: T2, NPAS4.F147A-mycFlag (human) (UniProt Q8IUM7); assay: as above
T2 sequence: T1 sequence with F147A

[3] = molecular target: T3, NPAS4.E257K-mycFlag (human) (UniProt Q8IUM7); assay: as above
T3 sequence: T1 sequence with E257K

[4] = molecular target: T1, WT NPAS4-mycFlag (human Neuronal PAS factor 4) (human); assay: co-IP; data not shown; co-immunoprecipitation of ARNT2.R107H with NPAS4; no details given
[5] = molecular target: T1, WT NPAS4-mycFlag (human Neuronal PAS factor 4) (human); assay: co-IP; HEK293T cells cotransfected with NPAS4-mycFlag and ARNT2 expression plasmids; whole cell extract incubated with Flag M2 resin in IP buffer (20 mM HEPES pH 8.0, 150 mM NaCl, 150 mM KCl); ARNT2 detected by anti-ARNT2 immunoblot

## endogenous ARNT2 (HEK293T) (from UniProt Q9HBZ2 1-717)
[1]
  binding: binds
[2]
  binding: binds
[3]
  binding: binds

## ARNT2.R107H (from UniProt Q9HBZ2 1-717)
[4]
  binding: binds

## ARNT2, overexpressed (human Aryl hydrocarbon Receptor Nuclear Translator 2) (from UniProt Q9HBZ2 1-717)
[5]
  binding: binds

Source: article PMC3894988, “Human Variants in the Neuronal Basic Helix-Loop-Helix/Per-Arnt-Sim (bHLH/PAS) Transcription Factor Complex NPAS4/ARNT2 Disrupt Function” (PLoS ONE, 2014)
